Data reported in US10328056B2, “Priming of pancreatic tumor cells and cancer stem cells to TRAIL-induced apoptosis” (Alliance of Cardiovascular Researchers, priority 2014, dated 2019).
For at least one compound, name, drawing or mass did not settle the structure.

Legend:
Format in all cases: cell-based
[1] = tested on: CSC target genes (CD24, EpCAM, BMI1, and LGR5); test: qRT-PCR of CSC target genes; settings: JNKi 0.5 μM vs untreated
[2] = tested on: p-JNK; test: PathScan p-SAPK/JNK sandwich ELISA; settings: L3.6plTR cells vs untreated control
Method: Protein lysates were obtained from adherent cells or spheres after 1-hour of incubation with JNKi and/or TRAIL. Protein quantification was performed, and PathScan Sandwich ELISA Antibody Pair (Cell Signaling Technologies) was performed according to the manufacturer's instructions.

[3] = tested on: TRAIL-resistant L3.6pl cells (L3.6plTR); test: Cell viability / cell death in TRAIL-resistant cells; settings: low-dose JNKi
Method: (§1) Cells were seeded in a 96-well plate at a density of 4000 to 5000 cells per well (70%-80% confluence) in triplicate. Non-adherent cells were washed with PBS, and different substrate dilutions were added. After 24 hours, 3-(4,5-dimethylthiazol-2-yl)-2,5-diphenyltetrazolium bromide (MTT) assay (Roche, Mannheim, Germany) was performed according to the manufacturer's instructions. Results were measured at 570 nm and background at 650 nm on a microplate reader (Molecular Devices).

[4] = tested on: L3.6pl cells; test: Matrigel-coated Boyden invasion chamber assay; settings: low-dose 0.5 μM
[5] = tested on: HS766T cells; test: MTT cell viability assay
[6] = tested on: pancreatic cancer cells; test: Two-dimensional wound healing scratch assay
[7] = tested on: JNK target genes (cJun, Survivin, CKD1, MMP1, c-Myc); test: qRT-PCR of JNK target genes; settings: low-dose JNKi (0.5 μM) vs untreated
[8] = tested on: pancreatic cancer cell lines; test: Colony-forming assay; settings: after 10 days
[9] = tested on: DR4 and DR5; test: qRT-PCR of TRAIL death receptors; settings: vs control samples
Method: (§2) For total RNA extraction, cells were homogenized with TRIzol (Invitrogen). Phase separation was performed by the addition of chloroform and subsequent centrifugation steps. Aqueous phase of samples was collected, and RNA was precipitated by isopropyl alcohol. After washing, RNA was redissolved in DEPC-treated water, and RNA quality and quantity were measured with a Nanodrop ND-1000 Spectrophotometer (Thermo Scientific). For cDNA synthesis, the iScript Reverse Transcription Supermix (Bio-Rad) was used according to the manufacturer's protocol, and the reaction mix was incubated in a thermal cycler (Bio-Rad MyIQ Single-Color RT-PCR Detection System iCycler) with the following protocol: priming (5 minutes at 25° C.), reverse transcription (30 minutes at 42° C.), and reverse transcription inactivation (5 minutes at 85° C.). qRT-PCR was performed using iQ SYBR Green Supermix (Bio-Rad) according to the following protocol: initial denaturation and enzyme activation (1 cycle at 95° C. for 3 minutes), denaturing (40 cycles at 95° C. for 15 seconds) with annealing and extension (40 cycles at 55° C. for 30 seconds), and melting curve (1 cycle at 55° C.-95° C. in […] for 30 seconds). The Ct (cycle threshold) value was measured in absolute quantification (of cycles of amplification) and compared to β-actin, which served as a housekeeping gene.

[10] = tested on: IL-8, CXCR1, DcR1, c-Jun; test: qRT-PCR of IL-8 axis genes; settings: JNKi treatment
Method: as §2

[11] = tested on: phospho-c-Jun; test: Phospho-c-Jun staining in scratch assay; settings: scratch margins, 24 h
[12] = tested on: Patx1 cells; test: MTT cell viability assay
[13] = tested on: CSC-enriched L3.6plTR spheres; test: Sphere forming assay, TRAIL-resistant cells; settings: low-dose treatment
[14] = tested on: IL-8 secretion; test: Human CXCL8/IL-8 ELISA of culture supernatant; settings: TRAIL with or without JNKi
Method: Cell culture supernatant was obtained after 24-hour treatments in triplicate. A human CXCL8/IL-8 Quantikine ELISA kit (R&D Systems) was used to measure human IL-8 according to the manufacturer's protocol. An IL-8 standard curve was performed to determine concentrations (in pg of cytokine per μL).

[15] = tested on: parental pancreatic cancer cells; test: MTT cell viability assay, single agents; settings: JNKi 0.5 μM alone; rhTRAIL 10 ng/mL alone
Method: as §1

[16] = tested on: CSC-enriched pancreatic cancer spheres; test: Sphere forming assay
Method: Sphere-forming medium consisted of MEMα supplemented with L-glutamine, putrescine, insulin (all from Sigma-Aldrich), […] (20 ng/mL), basic fibroblast growth factor (10 ng/mL), and B-27 supplement (Gibco). For first generation, attached cells were trypsinized, washed twice with PBS, and seeded in sphere-forming medium as single cell suspensions with clonal density (5,000-10,000 cells/mL) on ultra-low-attachment plates (Corning). After 7 to 10 days, spheres were harvested by gravitation in a tube, trypsinized, washed twice with PBS, and reseeded as described above for the next higher generation. To quantify sphere-forming ability, cells were prepared as described in the preceding paragraph and seeded in 96-well ultra-low-attachment plates at 500 to 1000 cells per well. Medium was supplemented with 1% methylcellulose to prevent cell-cell attachments. Medium was added or renewed every 3 days, and spheres were quantified at day 10 to 12.

[17] = tested on: Panc1 cells; test: Matrigel-coated Boyden invasion chamber assay; settings: low-dose 0.5 μM
[18] = tested on: DcR1; test: qRT-PCR of TRAIL decoy receptor; settings: vs control samples
Method: as §2

[19] = tested on: CSC markers Oct3/4, Nanog, Sox2, and CD44; test: qRT-PCR of CSC markers in spheres; settings: low-dose JNKi
[20] = tested on: L3.6pl cells; test: MTT cell viability assay; settings: high-dose 5.0 μM, 10.0 μM, or 20.0 μM
Method: as §1

[21] = tested on: MiaPaCa2 cells; test: MTT cell viability assay; settings: high-dose 5.0 μM, 10.0 μM, or 20.0 μM
Method: as §1

[22] = tested on: Panc1 cells; test: MTT cell viability assay
[23] = high-dose 5.0 μM, 10.0 μM, or 20.0 μM
[24] = low-dose 0.5 μM or 1.0 μM, 24 hours

SMILES: Oc1c2ccccc2c2c3c(cccc13)N=N2 [JNKi, SP600125]
- expression of CSC target genes [1]: downregulated
- p-JNK levels [2]: reduced p-JNK expression
- cell viability [3]: significantly reduced cell viability
- invasive behavior [4]: substantially inhibited
- cell viability [5, 23]: markedly decreased cell viability
- cell viability [5, 24]: negligible effect
- wound closure ([6]; increasing doses): inhibited wound closure in a dose-dependent manner
- wound healing ([6]; low doses, up to 32 hours): significant effects on wound healing
- expression of JNK target genes [7]: significantly downregulated
- number of colonies formed ([8]; all cell lines): dose-dependent inhibition
- size of colonies ([8]; e.g. MiaPaCa2): reduction in size
- expression of DR4 and DR5 [9]: increasing the expression of TRAIL death receptors DR4 and DR5
- CXCR1 levels [10]: lowered CXCR1 levels considerably
- c-Jun and DcR1 expression [10]: downregulated
- phosphorylation of c-Jun [11]: inhibited
- cell viability [12, 23]: markedly decreased cell viability
- cell viability [12, 24]: negligible effect
- sphere diameter [13]: almost all of the spheres formed were smaller than 75 μm
- IL-8 secretion [14]: IL-8 secretion can be blocked
- cell viability [15]: only modest effects
- number of spheres ([16]; 0.5 μM): significantly reduced
- sphere size ([16]; all cell lines analyzed): drastically reduced
- sphere size / sphere growth ([16]; low-dose JNKi alone or with TRAIL): reduced sphere size to some extent
- invasive behavior [17]: substantially inhibited
- expression of DcR1 [18]: reducing expression of the TRAIL decoy receptor DcR1
- expression of CSC markers in spheres [19]: decreased the expression
- cell viability [20]: markedly decreased cell viability
- cell viability [21]: markedly decreased cell viability
- cell viability [22, 23]: markedly decreased cell viability
- cell viability [22, 24]: negligible effect
